Measured values published in patent US20040018253A1, “Use of CYP2D6 inhibitors in combination therapies” (priority 1999, published 2004).
Certain results were filed several times, with different values. Only these are listed. There may be further records. Results that share an entry do not match, cause unknown; some may be repeats, others may stem from another dose, organism or construct than stated.

Assay: Human pharmacokinetics of CYP2D6 substrates (half-life, oral bioavailability, hepatic extraction)

For `O=C1CCC(=O)N1C[C@H]1CC[C@H]2CN(c3ncccn3)CCN2C1` [sunipetron, (7S,9S)-2-(2-pyrimidyl)-7-(succinamidomethyl)-prehydro-1H-pyrido-[1,2-a]pyrazine], the human half-life was “about 1 hours and 1.1 hours”.
